No constants are given. Whether binding was seen depends on the method and setting. Binding seen in cells or lysates may run through a third protein. Here binding means that the protein was enriched with, or labelled near, the bait; the list need not be complete.
Molecular target: T1, ZDHHC19-TurboID (mouse) (UniProt Q810M5)
T1 sequence: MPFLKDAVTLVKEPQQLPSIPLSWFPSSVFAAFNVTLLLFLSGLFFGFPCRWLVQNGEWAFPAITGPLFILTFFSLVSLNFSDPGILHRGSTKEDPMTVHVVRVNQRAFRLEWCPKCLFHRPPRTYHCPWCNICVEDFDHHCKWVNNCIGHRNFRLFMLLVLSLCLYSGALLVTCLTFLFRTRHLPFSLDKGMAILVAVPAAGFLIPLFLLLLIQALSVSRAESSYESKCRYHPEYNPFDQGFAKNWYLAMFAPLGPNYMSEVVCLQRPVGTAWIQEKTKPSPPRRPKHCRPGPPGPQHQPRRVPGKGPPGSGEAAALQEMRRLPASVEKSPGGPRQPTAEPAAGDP
Assay: proximity labelling; ZDHHC19-TurboID in HEK293T cells, 500 μM D-biotin 40 min 37°C; streptavidin-coated magnetic beads; blot with anti-p62 antibody

For “endogenous p62 (HEK293T cells) (from UniProt Q13501 1-440)”, the binding was “binds”.

From publication PMC10552648
